Consider one molecule from patent US11504380B2, “Method of treatment of cirrhosis” (INVENTIVA, priority 2019, dated 2022).

The subject of this series is rat model of cirrhosis induced by the administration of thioacetamide (TAA). The series can be described thus: Systemic and hepatic hemodynamics, ascites and body/organ weights in TAA-induced cirrhotic rats. The conditions noted are these: TAA-exposed rats, 100 mg/kg/day orally for two weeks. In kind it is in vivo, Sprague Dawley rats. The source says: Lanifibranor has been assessed in a rat model of cirrhosis induced by the administration of thioacetamide (TAA), which administration leads to the development of fibrosis in the early time points and then of cirrhosis in the late time points, turning for the majority of the animals to decompensated cirrhosis. Sprague Dawley rats (12-15 rats per groups) were intraperitoneally administered TAA (twice a week) for a period of twelve weeks to ensure reaching decompensated cirrhosis. At the end of this period, a TAA detoxification period of four days was observed. The rats were then orally administered for two weeks with either lanifibranor at 100 mg/kg/day in vehicle (methylcellulose 1%+poloxamer-188 0.1%), or with vehicle alone (control). At the end of the two weeks of treatment in vivo systemic and hepatic hemodynamics were determined and rats were then sacrificed, and plasma samples and liver tissue were harvested. The hemodynamics measurements were obtained as follow: mean arterial pressure (MAP) and heart rate (HR) were measured by cannulating the femoral artery; portal pressure (PP) was measured by cannulating the ileocolic vein, both with a heparinized p50 catheter (Portex) connected to a pressure probe; portal blood flow (PBF) was determined with the help of specific non-constrictive perivascular ultrasonic transit-time flow probe (Transonic Systems Inc.).

As for `O=C(O)CCCc1cc2cc(Cl)ccc2n1S(=O)(=O)c1ccc2ncsc2c1` [Lanifibranor, 4-[1-(1,3-benzothiazol-6-ylsulfonyl)-5-chloroindol-2-yl]butanoic acid], the Body weight came to 484 ± 16 g, the “HR (heart rate)” value turned out to be 334 ± 8 bpm and the Liver weight came to 14.1 ± 0.7 g. For the same molecule, under “listed as lanifibranor”, the Body weight entry is on record as “No change”, the “HR (heart rate)” value was “No change” and the Liver weight entry is listed as “No change”.
